Legend:
[1] = test system: Coccomyxa actinabiotis; assay: Binding and concentrating of radioactive metals by microalgae, 1 year in pool-like water, gamma-spectrometry; assay type: cell-based; details: 200 lux, pH 5.5, isotopes 110mAg, 60Co, 51Cr, 65Zn, 54Mn, 124Sb
[2] = test system: Coccomyxa actinabiotis; assay: Maximum metal concentrations bound (BBM medium diluted 10 times); assay type: cell-based
[3] = test system: cobalt-hyperaccumulating plants; details: cited from earlier work

SMILES	concentration factor (metal in microalgae atoms/g fresh matter / metal in water atoms/ml) [1]	other results
[51Cr] [^51Cr]	6000	
[Mn] [^54Mn]	1200	
[65Zn] [^65Zn]	3000	
[124Sb] [^124Sb]	200	
[Co+2] [cobalt]	40 000	cobalt bound per gram of fresh biomass ([2]; 6 days, 1.0×10^−3 mol cobalt per gram of alga): 1.53 mg; cobalt bound per gram of fresh biomass ([2]; 45 days, 3.8×10^−4 mol cobalt per gram of alga): 12.1 mg; cobalt bound, dry mass ([3]; Bresson et al. 2009): up to 4.3 mg thereof/g; cobalt bound, fresh mass ([3]; approximate conversion): approximately 0.4 mg/g
[Ag] [silver]	450 000	

Source: US8673620B2, “Radioresistant alga of the Coccomyxa genus” (priority 2010, dated 2014)
